Among all 340,000 compounds or so, about 170 (0.05%) were called active. The inconclusive results got no clear call from the source; some entries with a clear call stand among them for comparison. The call rests on the fitted dose curve; in most records, active means well fitted inhibition curve with a large enough effect in the signal ratio, with a control signal flat (not every such curve was filed as active); inconclusive means small, poorly fitted or top-dose-only effect, or effect the other way, or a change in a side signal; inactive means flat fitted curve, though single readings scatter; the % refers to the signal ratio. A potency beside an inconclusive call is a rough fit, not a confirmed value.
Experiment: qHTS Assay to Find Inhibitors of Chronic Active B-Cell Receptor Signaling;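 on activity change, negative = inhibition: plate controls were basal doxycycline-induced cells for no effect and cells given 10 µM MG132 for full effect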
Conditions: ABC-DLBCL IkBa-CBG/CBR reporter, luminescence ratio (green luciferase fused to IkBa over red control in TMD8 lymphoma cells), 4 h
In short: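 Doxycycline induced both beetle luciferases in TMD8 lymphoma cells; IKK-driven degradation limits the IkappaBalpha-fused green signal, while red luminescence normalises for cell number and nonspecific effects. Compounds tested up to 46 uM, 4 hrs.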

[1] = activity change, negative = inhibition: at 46.1 µM (top of the series)
Potency means the concentration at half of the fitted maximal effect.

## CCCCCn1c(=NC(=O)c2ccco2)c(C(=O)OCC)cc2c(=O)n3ccccc3nc21
[1]
  activity change, negative = inhibition: inactive

## Cc1ccc(Cl)cc1NC(=O)NCc1cccnc1
[1]
  activity change, negative = inhibition: inactive

## CC(C)c1ccc(OCCCCN2CCCCC2)cc1
[1]
  activity change, negative = inhibition: inactive

## Oc1ccc(/C=N/Nc2ccc(Cl)nn2)c(O)c1O
[1]
  activity change, negative = inhibition: inconclusive: 3.49%

## Cc1ccc(-n2nnnc2Sc2ccc(S(=O)(=O)NCCN(C)C)cc2[N+](=O)[O-])cc1
[1]
  Potency: inconclusive: 3.26 µM [falling, single point]

## Cc1nc2ccc(-c3nc4ccccc4[nH]3)cc2[nH]1
[1]
  Potency: inconclusive: 35.5 µM [rising, single point]

## CCOc1ccc(NC(=O)NC(C)c2ccc3c(c2)OCO3)cc1 (stereo unspecified)
[1]
  activity change, negative = inhibition: inconclusive: 1.55%

## CCn1ncc(Br)c1C(=O)Nc1cc([N+](=O)[O-])ccc1C
[1]
  activity change, negative = inhibition: inconclusive: -1.49%

## CCCNc1nc2c(c(=O)n(C)c(=O)n2C)n1Cc1cccc(C)c1
[1]
  activity change, negative = inhibition: inconclusive: 5.16%

## Cc1ccc(C(C(=O)NC(C)(C)C)N(CCCN2CCOCC2)C(=O)c2ccc(-c3ccccc3)[nH]2)o1 (stereo unspecified)
[1]
  activity change, negative = inhibition: inconclusive: 10.8%

## CC1(C)CC(=O)C2=C(C1)N=C1c3ccccc3C(=O)C1C2c1ccc(Cl)cc1 (stereo unspecified)
[1]
  activity change, negative = inhibition: inconclusive: 1.39%

## Cc1c(C(C)(C)O)[nH]c2cc(C(F)(F)F)ccc12
[1]
  activity change, negative = inhibition: inconclusive: 16.3%

## Cc1ccc(C)c(S(=O)(=O)Nc2ccc(O)c(C(=O)O)c2)c1
[1]
  activity change, negative = inhibition: inactive

## O=C(O)c1ccc(CN(c2ccccc2)S(=O)(=O)c2ccccc2)cc1
[1]
  activity change, negative = inhibition: inconclusive: 4.87%

## CN(C)c1ccc(/C=N/N=C(N)N)cc1[N+](=O)[O-]
[1]
  activity change, negative = inhibition: inactive

## CC(=O)OCCCNc1cc(Sc2ccc(Cl)cc2)c2nonc2c1[N+](=O)[O-]
[1]
  activity change, negative = inhibition: inactive

## O=C1OC(Nc2ccc3c(c2)OCO3)c2ccccc21 (stereo unspecified)
[1]
  Potency: inconclusive: 11.2 µM [falling, partial curve]

## O=C(c1ccc(C(F)(F)F)cc1)C1CCCN(C(=O)c2cnccn2)C1 (stereo unspecified)
[1]
  activity change, negative = inhibition: inactive

## Cc1ccc(N=Nc2ccc(O)c3ncccc23)cc1
[1]
  activity change, negative = inhibition: inconclusive: 0.917%

## COC(=O)c1cc(C(=O)NCCN2C(=O)S/C(=C\c3cccs3)C2=O)cc([N+](=O)[O-])c1
[1]
  activity change, negative = inhibition: inconclusive: 2.7%

## CCOc1c(Cl)cc(/C=N/O)cc1OC
[1]
  activity change, negative = inhibition: inconclusive: 8.52%

## CN1/C(=C\C=C2/C(=O)Oc3ccccc3C2=O)C(C)(C)c2ccccc21
[1]
  activity change, negative = inhibition: inconclusive: -16.5%

## O=C(O)/C=C1\NC(=O)c2ccccc21
[1]
  activity change, negative = inhibition: inconclusive: 5.22%

## CCS(=O)(=O)N1Cc2ccccc2CC1C(=O)Nc1cccc(C)c1 (stereo unspecified)
[1]
  Potency: inconclusive: 15.8 µM [falling, partial curve]

## O=C1/C(=C/c2cccnc2)Sc2ccccc21
[1]
  Potency: inconclusive: 11.2 µM [falling, partial curve]

## CCNC(=O)NC(=O)COC(=O)CNC(=O)COc1ccccc1
[1]
  activity change, negative = inhibition: inconclusive: -1.42%

## COCC(=O)N/N=C\c1ccccc1OC/C=C/c1ccccc1
[1]
  activity change, negative = inhibition: inactive

## OCC(O)CN1CCCC1 (stereo unspecified)
[1]
  activity change, negative = inhibition: inactive

## CCOc1cc(/C=N/NC(=O)Nc2ccccc2)ccc1O
[1]
  Potency: inconclusive: 35.5 µM [falling, single point]

## COc1cc(CC(=O)N/N=C/c2ccccc2)c([N+](=O)[O-])cc1OC
[1]
  activity change, negative = inhibition: inconclusive: 0.515%

## CN(C)c1cccc2c(S(=O)(=O)Nc3ccccn3)cccc12
[1]
  activity change, negative = inhibition: inconclusive: 5.2%

## Clc1ccc2nc(-c3ccccc3)nc(C(Cl)Cl)c2c1
[1]
  activity change, negative = inhibition: inconclusive: -19%

## O=C(Cc1ccccc1[N+](=O)[O-])NCc1ccco1
[1]
  activity change, negative = inhibition: inactive

## COc1ccc(Cc2nc3ccc(C(=O)NC(C)Cc4ncccc4C)cc3o2)cc1OC (stereo unspecified)
[1]
  activity change, negative = inhibition: inconclusive: -2.64%

## Cc1ccc(CNC(=O)CCCc2cn(C)c3ccccc23)cc1
[1]
  activity change, negative = inhibition: inconclusive: -1.5%

## Nc1nnnn1/N=C/c1ccccc1OCc1ccccc1
[1]
  activity change, negative = inhibition: inconclusive: 11.5%

## CCOCc1c(C(=O)NCc2ccccc2CN2CCCC2)oc2ccccc12
[1]
  activity change, negative = inhibition: inconclusive: 2.16%

## COc1ccc(NC(=O)c2ccc3c(c2)C(=O)N(CC2CCCO2)C3=O)cc1 (stereo unspecified)
[1]
  activity change, negative = inhibition: inconclusive: 1.54%

## COc1cc(NC(=O)c2cccs2)c(C(=O)OCC(=O)NC(=O)NCc2ccccc2)cc1OC
[1]
  Potency: inconclusive: 5.17 µM [falling, partial curve, poor fit]

## CCCCN(C(=O)Cn1nnc2ccccc21)C(C(=O)NCCOC)c1ccccc1 (stereo unspecified)
[1]
  activity change, negative = inhibition: inconclusive: 8.99%

## CCOc1ccc(S(=O)(=O)NCC(=O)N(C)Cc2cccnc2)cc1
[1]
  activity change, negative = inhibition: inconclusive: 2.24%

## CCc1cc2c(=O)c(Oc3ccccc3)c(C)oc2cc1O
[1]
  activity change, negative = inhibition: inconclusive: -1.67%

## O=C(Nc1ccc(N2CCN(C(=O)c3ccco3)CC2)cc1)c1ccco1
[1]
  activity change, negative = inhibition: inconclusive: 7.55%

## COCCNC(=O)c1onc(CSc2ccc(Cl)cc2)c1C(=O)O
[1]
  Potency: inconclusive: 22.4 µM [falling, single point]

## CCOC(=O)c1cc2c(OC)ccc(OC)c2n1CC(=O)c1ccccc1
[1]
  activity change, negative = inhibition: inactive

## CCCCn1nnc(N(C(=O)c2cccs2)C(=O)c2cccs2)n1
[1]
  Potency: inconclusive: 22.4 µM [falling, single point]

## CC(C)=CCN1CCN(Cc2cccn2-c2ccccn2)CC1CCO (stereo unspecified)
[1]
  activity change, negative = inhibition: inactive

## Nc1nn(-c2ccccc2)c(N)c1N=Nc1ccccc1F
[1]
  Potency: inconclusive: 29.1 µM [rising, single point]

## Cc1cc(O)cc2c1C(c1ccc(F)cc1)CC1(CC(C)(C)NC(=S)N1)O2 (stereo unspecified)
[1]
  activity change, negative = inhibition: inconclusive: 8.07%

## CCSc1ccccc1C(=O)N1CCN(c2ccccc2F)CC1
[1]
  activity change, negative = inhibition: inconclusive: 5.81%

## Cc1ccc(-n2c([S-])c(C(=O)NC(C)c3ccccc3)[n+]3ccccc23)cc1 (stereo unspecified)
[1]
  activity change, negative = inhibition: inconclusive: 7.99%

## Cc1cc(C)cc(NC(=O)C2CCN(S(=O)(=O)c3cccc4nonc34)CC2)c1
[1]
  activity change, negative = inhibition: inactive

## Nc1c2c(nc3ccccc13)CCCC2
[1]
  activity change, negative = inhibition: inconclusive: -18%
At 46.1 µM (top of the series)
  activity change, negative = inhibition: inactive: 2.01%

## O=C(CCc1ccccc1)Nc1nnc(-c2cccs2)o1
[1]
  Potency: inconclusive: 29.1 µM [falling, single point]

## C=CCn1c(SCC(=O)c2ccccc2)nnc1-c1ccc2c(c1)OCO2
[1]
  activity change, negative = inhibition: inconclusive: 1.73%
